Where “and” joins values, the source holds several entries; their conditions need not be identical. Equal values may be shown once. The campaign covered roughly 1,300 compounds. About 420 (32%) were called active. The shares of active, inactive and inconclusive entries below differ from those in the screen. The call rests on the fitted dose curve; in most records, active means well fitted inhibition curve with a large enough effect; inconclusive means small, poorly fitted or top-dose-only effect; inactive means no such curve, though single readings can be large or run the other way. Potencies of inconclusive entries are doubtful fits and often do not repeat.
The molecules below were run against C-terminal-binding protein 1 (Homo sapiens) (UniProt Q13363) (assay: qHTS for Inhibitors of the Phosphatase Activity of Eya2: Carboxyl-terminal binding protein (CtBP) Counterscreen for Cherry-picked Compounds). Details: purified protein-protein binding, AlphaScreen, 3 h; series mostly up to 46.1 µM.
How it was run: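 Cherry-picked compounds (final 2.5 nM–46 uM) were incubated 2 h at RT with 25 nM CtBP-6xHIS and 25 nM GST-E1A. Alpha beads (20 ug/mL) were then added for 1 h, light-protected; DMSO and E1A peptide inhibitor wells set the normalization.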
Further: nearly all actives have a fitted effect of over 65% in size.
Potency means the concentration at half of the fitted maximal effect.

| Structure (SMILES) | Potency |
| --- | --- |
| NC(=O)c1ccc(NC(=O)CSC(=O)c2ccccc2)cc1 | inconclusive: 15.1 µM [inhibitor, single point] |
| Cc1cccc(C)c1OCc1cc(C(=O)N2CCN(c3ccccc3)CC2C)no1 (stereo unspecified) | inactive |
| COc1cccc(Nc2nc(-c3sc(C)nc3C)cs2)c1 | inconclusive: 16.9 µM [inhibitor, single point] |
| COc1ccc2c(c1)-c1c(ssc1=S)C(C)(C)N2S(=O)(=O)c1ccc(C)cc1 | inconclusive: 15.1 µM [inhibitor, partial curve] |
| CCC(=O)Oc1ccc(C(=O)Nc2c[nH]c(=O)[nH]c2=O)cc1 | inconclusive: 19 µM [inhibitor, single point] |
| COc1cc(NC(=O)c2ccc(OCc3c(C)noc3C)c(OC)c2)cc(OC)c1 | inconclusive: 16.9 µM [inhibitor, partial curve] |
| CN(C)c1ccc(/C=C2\c3ccccc3-c3ccc(N(C)C)cc32)cc1 | active: 5.36 µM |
| CCOc1ccc(CN2CCCC(N3CCN(c4ccc(OC)cc4)CC3)C2)cc1 (stereo unspecified) | inconclusive: 15.1 µM [inhibitor, single point] |
| CC1(C)CC(=O)C=C(c2ccc(COC(=O)c3cc(F)cc(F)c3)cc2)C1=O | inactive |
| CCc1ccc(-c2csc(NC(=O)C3CC(=O)N(c4ccc5c(c4)OCCO5)C3)n2)cc1 (stereo unspecified) | inactive |
| COc1ccc(C2c3[nH]c4ccccc4c3C[C@H]3C(=O)N(C4CCN(Cc5ccccc5)CC4)CC(=O)N23)cc1OC (stereo partly specified) | inactive |
| COc1ccc(Cl)cc1NC(=O)CCCn1c(=O)c2cccn2c2cccnc21 | inactive |
| COc1ccc(C(=O)Oc2ccc(=O)n(-c3ccccc3)n2)cc1 | inconclusive: 30.1 µM [inhibitor, single point] |
| O=C(SCc1c(O)c2ccccc2oc1=O)c1ccccc1 | inconclusive: 16.9 µM [inhibitor, single point] |
| CCOc1ccc(/C=N/n2nnnc2N)cc1OCC | inconclusive: 19 µM [inhibitor, single point] |
| COc1ccc(CCNc2nc(-c3ccc(O)cc3)cs2)cc1OC | inconclusive: 15.1 µM [inhibitor, single point] |
| Cc1ccc(C(=O)Oc2ccc(C(=S)N3CCOCC3)cc2)cc1 | inconclusive: 6.75 µM [inhibitor, full curve] |
| Brc1ccc2c(c1)C(c1cccnc1)=NNC(c1cccs1)=N2 | inconclusive: 19 µM [inhibitor, single point] |
| CCN(CC)CC(=O)Nc1cccc2c1C(=O)c1ccccc1C2=O | inconclusive: 5.36 µM [inhibitor, partial curve] |
| CCNc1ccc2noc3c2c1C(=O)c1ccccc1-3 | active: 7.57 µM |
| COc1cc(N=c2oc3c(C)ncc(CO)c3cc2C(N)=O)cc(OC)c1OC | active: 4.78 µM |
| CCOc1ccc(C(NC(C)=O)c2cc(Cl)c3cccnc3c2O)cc1 (stereo unspecified) | inconclusive: 0.536 µM [inhibitor, full curve] |
| O=c1cc2oc3cc(O)c(O)cc3c(-c3ccccc3[N+](=O)[O-])c-2cc1O | active: 9.53 µM |
| Cc1ccc(C(=O)Nc2ccccc2C(=O)O)cc1NC(=O)COc1c(C)cccc1C | inconclusive: 16.9 µM [inhibitor, single point] |

Exported as tab-separated lines: 2 of the compounds above.
Structure (SMILES)	Potency
Cc1ccc(C(=O)Oc2ccc(C(=S)N3CCOCC3)cc2)cc1	inconclusive: 6.75 µM [inhibitor, full curve]
Brc1ccc2c(c1)C(c1cccnc1)=NNC(c1cccs1)=N2	inconclusive: 19 µM [inhibitor, single point]

Continuation.

| Structure (SMILES) | Potency |
| --- | --- |
| CC(C)(C)C(=O)Nc1nnc(-c2ccncc2)o1 | inconclusive: 16.9 µM [inhibitor, single point] |
| Cc1ccc(C2CC(c3ccc(Br)cc3)=NN2C(=O)CSC2=NN3CCCC(=O)N=C3S2)cc1 (stereo unspecified) | inactive |
| Cc1ccc2cc(NC(=O)CC(CC(=O)O)c3ccccc3)ccc2n1 (stereo unspecified) | active: 15.1 µM |
| COc1cc(NS(=O)(=O)c2ccc(N/C=C\C(=O)c3ccc(OC)c(OC)c3)cc2)nc(OC)n1 | active: 8.49 µM |
| COc1ccc(-c2cc(C3CCNCC3)[nH]n2)cc1 | inactive |
| O=C(Nc1nccs1)c1ccc[nH]c1=O | inconclusive: 15.1 µM [inhibitor, partial curve] |
| CS(=O)(=O)c1cccc(C(=O)Nc2cccc(-c3nc4ccccc4[nH]3)c2)c1 | inconclusive: 16.9 µM [inhibitor, single point] |
| COc1ccc(C2C3=C(CCCC3=O)N(CC(=O)O)C3=C2C(=O)CCC3)cc1Br | inconclusive: 16.9 µM [inhibitor, single point] |
| COc1cc(N)c(Cl)cc1C(=O)N[C@H]1CCN(CCCOc2ccc(F)cc2)C[C@H]1OC | inactive |
| O=C(O)c1cccc(NC(=O)c2ccc(CN3C(=O)c4ccccc4C3=O)cc2)c1 | inconclusive: 15.1 µM [inhibitor, single point] |
| COc1ccc(N2CCN(C(c3cccs3)C(C)NC(=O)c3ccc4c(c3)OCO4)CC2)cc1 (stereo unspecified) | inactive |
| O=[N+]([O-])c1cc2c(cc1CN1CCN(c3ccccc3)CC1)OCO2 | inconclusive: 19 µM [inhibitor, single point] |
| Cc1cc(C)c2c(/C=C/c3ccc(N(C)C)cc3)ccnc2c1 | active: 13.5 µM |
| Cc1nc([N+](=O)[O-])cn1CC(O)c1ccc2c(c1)OCO2 (stereo unspecified) | inactive |
| C#CCn1cc(/C=C2\NC(=O)NC2=O)c2ccccc21 | inconclusive: 4.78 µM [inhibitor, full curve, poor fit] |
| CC(C)n1nc(C(=O)Nc2ccc3c(c2)OCO3)c2ccccc2c1=O | inconclusive: 10.7 µM [inhibitor, partial curve] |
| CCN(C)c1ccc(/C=C/c2ccnc3ccccc23)cc1 | inconclusive: 8.49 µM [inhibitor, partial curve] |
| Cc1cc2nc(-c3ccco3)c(Cc3cccc(F)c3)n2c(C)c1Br | inactive |
| CC(NC(=O)CN(C)S(=O)(=O)c1ccc2c(c1)c(=O)n(C)c(=O)n2C)c1ccccc1 (stereo unspecified) | inconclusive: 15.1 µM [inhibitor, single point] |
| O=C(Nc1nc(-c2ccc(S(=O)(=O)N3CCOCC3)cc2)cs1)c1ccccc1 | active: 6.75 µM and active: 7.57 µM |
| CCCC(=O)NC(=S)Nc1sc2c(c1C(N)=O)CCC2 | inactive |
| CN(C)c1ccc(/C=C2\C=Cc3cc(N)ccc32)cc1 | active: 7.57 µM |
| O=C(O)C(Oc1ccc2c(c1)oc(=O)c1ccccc12)c1ccccc1 (stereo unspecified) | inconclusive: 16.9 µM [inhibitor, single point] |
| O=S(=O)(c1cc(O)ccc1O)c1cccc2c(S(=O)(=O)c3cc(O)ccc3O)cccc12 | inconclusive: 15.1 µM [inhibitor, single point] |

3 compounds drawn at random from the list so far, as already listed:

| Structure (SMILES) | Potency |
| --- | --- |
| CCN(C)c1ccc(/C=C/c2ccnc3ccccc23)cc1 | inconclusive: 8.49 µM [inhibitor, partial curve] |
| COc1cc(N)c(Cl)cc1C(=O)N[C@H]1CCN(CCCOc2ccc(F)cc2)C[C@H]1OC | inactive |
| O=C(O)c1cccc(NC(=O)c2ccc(CN3C(=O)c4ccccc4C3=O)cc2)c1 | inconclusive: 15.1 µM [inhibitor, single point] |

Next part:

| Structure (SMILES) | Potency |
| --- | --- |
| O=S(=O)(c1ccc(Cl)s1)N1CCc2ccccc2C1 | inactive |
| CN(C)c1ccc(/C=C2\C=Cc3ccccc32)cc1F | inconclusive: 10.7 µM [inhibitor, partial curve] |
| NC(=O)Cc1ccc(Nc2nnc(-c3ccc(O)cc3)c3ccccc23)cc1 | inconclusive: 15.1 µM [inhibitor, single point] |
| O=C1Nc2ccc3sc4ccccc4c3c2C1=O | inconclusive: 21.3 µM [inhibitor, partial curve] |
| CC(C)[C@H](NC(=O)c1ccccc1)C(=O)NC1CCCCCCC1 | inactive |
| O=C1CSC(=S)N1N=C1CCCCCC1 | inconclusive: 30.1 µM [inhibitor, single point] |
| COc1ccc(C(=O)Nc2ccc(Nc3ccccc3)cc2)cc1[N+](=O)[O-] | inconclusive: 15.1 µM [inhibitor, partial curve] |
| O=C(Nc1ccccc1)Nc1cccc(-c2cn3cccnc3n2)c1 | inconclusive: 6.01 µM [inhibitor, partial curve] |
| COc1cccc(NC(=O)c2ccc3c(c2)CCN3S(C)(=O)=O)c1 | inactive |
| CCOc1ccc(NC(=O)CN(C)C(=O)C2CCN(C(=O)Nc3ccccc3)CC2)cc1OCC | inconclusive: 21.3 µM [inhibitor, single point] |
| NSc1nc(N)c2nc(-c3ccccc3)c(-c3ccccc3)nc2n1 | inconclusive: 5.36 µM [inhibitor, partial curve] |
| COc1ccc2[nH]cc(CCn3ccc(O)c(C/C=C/c4ccccc4)c3=O)c2c1 | inconclusive: 16.9 µM [inhibitor, single point] |
| COc1cc2c(cc1OC)C(c1ccc([N+](=O)[O-])cc1)NCC2 (stereo unspecified) | inactive |
| Cc1ccc(C(=O)Oc2ccc(N3C(=O)CCC3=O)c(C)c2)cc1 | inactive |
| C[C@H](CCC(=O)NCC(=O)O)[C@H]1CC[C@H]2[C@@H]3[C@H](O)C[C@@H]4C[C@H](O)CC[C@]4(C)[C@H]3C[C@H](O)[C@]12C | inactive |
| O=C(Oc1ccc(C(=S)N2CCOCC2)cc1Br)c1ccccc1F | inconclusive: 30.1 µM [inhibitor, single point] |
| COc1cc(C=C(c2nc3ccccc3s2)c2nc3ccccc3s2)ccc1O | inconclusive: 16.9 µM [inhibitor, single point] |
| Cc1ccc(NC2=C/C(=N/S(=O)(=O)c3cccs3)c3ccccc3C2=O)cc1 | inconclusive: 0.239 µM [inhibitor, full curve] |
| CC(=O)NS(=O)(=O)c1ccc2c(c1)C(=O)c1cc(S(=O)(=O)NC(C)=O)ccc1-2 | inconclusive: 15.1 µM [inhibitor, partial curve] |
| CCOC(=O)N1CCC(NC(=O)c2cc3c(-c4ccccc4F)nn(C)c3s2)CC1 | inactive |
| Cc1c(CC(=O)NCC(=O)O)c(=O)oc2cc3occ(-c4ccccc4)c3cc12 | active: 13.5 µM |
| Cc1oc(-c2ccc(-c3ccccc3)cc2)nc1CN(C)C1CCOC1 (stereo unspecified) | inactive |
| COc1ccc(-c2c/c(=N\c3nc(-c4ccccc4)c(C)s3)c3ccccc3o2)cc1O | inconclusive: 13.5 µM [inhibitor, partial curve] |

From PubChem BioAssay AID720541 (National Center for Advancing Translational Sciences (NCATS), 2013)
